The exact form of at least one protein or probe is not confirmed. For some of these results: No signal at the amounts used counts as a negative.
Key:
Experiment in all cases: binding assay
[1] = molecular target: Taq DNA polymerase (Thermus aquaticus) (UniProt P19821); details: iSp18 spacer and 3' amino in DCP1, purified recombinant protein, protein details: New England Biolabs
[2] = test system: Phusion DNA polymerase; details: LNA at GATA and GAAC of 3' 12-mer GATAgcttGAAC of SEQ 2 (mC LNA), PS linkages in the 12-mer; iSp18 spacer and 3' amino in DCP1; no read-through with or without PEG/propanediol, HF or GF buffer; purified recombinant protein; protein details: Thermo Scientific; synthetic backbone
[3] = molecular target: RevertAid reverse transcriptase (UniProt P03355); details: LNA at GATA and GAAC of 3' 12-mer GATAgcttGAAC of SEQ 2 (mC LNA), PS linkages in the 12-mer; iSp18 spacer and 3' amino in DCP1; no or very very low read-through, 42 C; purified recombinant protein; protein details: Thermo Scientific; synthetic backbone

Q: Does “GCGTAACTAGACCATAAGCCGATAGCTTGAACCGGACCAGCAAGCTTAGAGATCACGGTATCCAGATTCGCTCATAGTACACAACTGCCTCCGGTTCAA / GCAGTTGTGTACTATGAGCGA [DTT1 template with DCP1_primer1]” bind ([1]; all DNA phosphodiester, ddPCR EvaGreen supermix with added Taq, many positive droplets, variant of LTT1 template with DCP1_primer1)?
A: binds

Q: Does “GCGTAACTAGACCATAAGCCGATAGCTTGAACCGGACCAGCAAGCTTAGAGATCACGGTATCCAGATTCGCTCATAGTACACAACTGCCTCCGGTTCAA / GCAGTTGTGTACTATGAGCGA [LTT1 template with DCP1_primer1]” bind [2]?
A: no binding

Q: Does “GCGTAACTAGACCATAAGCCGATAGCTTGAACCGGACCAGCAAGCTTAGAGATCACGGTATCCAGATTCGCTCATAGTACACAACTGCCTCCGGTTCAA / GCAGTTGTGTACTATGAGCGA [LTT1 template with DCP1_primer1]” bind [3]?
A: no binding

Q: Does “GCGTAACTAGACCATAAGCCGATAGCTTGAACCGGACCAGCAAGCTTAGAGATCACGGTATCCAGATTCGCTCATAGTACACAACTGCCTCCGGTTCAA / GCAGTTGTGTACTATGAGCGA [LTT1 template with DCP1_primer1]” bind ([1]; LNA at GATA and GAAC of 3' 12-mer GATAgcttGAAC of SEQ 2 (mC LNA), PS linkages in the 12-mer, effective read-through only with 10% PEG and 0.31 M propanediol, almost none in standard buffer (FIG. 5A), synthetic backbone)?
A: binds

Reference: patent US20210071247
